Results taken from paper PMC5173251.

Protein sequences, listed by entry. Tags and fused reporters are not part of them.
UniProt Q558Z2: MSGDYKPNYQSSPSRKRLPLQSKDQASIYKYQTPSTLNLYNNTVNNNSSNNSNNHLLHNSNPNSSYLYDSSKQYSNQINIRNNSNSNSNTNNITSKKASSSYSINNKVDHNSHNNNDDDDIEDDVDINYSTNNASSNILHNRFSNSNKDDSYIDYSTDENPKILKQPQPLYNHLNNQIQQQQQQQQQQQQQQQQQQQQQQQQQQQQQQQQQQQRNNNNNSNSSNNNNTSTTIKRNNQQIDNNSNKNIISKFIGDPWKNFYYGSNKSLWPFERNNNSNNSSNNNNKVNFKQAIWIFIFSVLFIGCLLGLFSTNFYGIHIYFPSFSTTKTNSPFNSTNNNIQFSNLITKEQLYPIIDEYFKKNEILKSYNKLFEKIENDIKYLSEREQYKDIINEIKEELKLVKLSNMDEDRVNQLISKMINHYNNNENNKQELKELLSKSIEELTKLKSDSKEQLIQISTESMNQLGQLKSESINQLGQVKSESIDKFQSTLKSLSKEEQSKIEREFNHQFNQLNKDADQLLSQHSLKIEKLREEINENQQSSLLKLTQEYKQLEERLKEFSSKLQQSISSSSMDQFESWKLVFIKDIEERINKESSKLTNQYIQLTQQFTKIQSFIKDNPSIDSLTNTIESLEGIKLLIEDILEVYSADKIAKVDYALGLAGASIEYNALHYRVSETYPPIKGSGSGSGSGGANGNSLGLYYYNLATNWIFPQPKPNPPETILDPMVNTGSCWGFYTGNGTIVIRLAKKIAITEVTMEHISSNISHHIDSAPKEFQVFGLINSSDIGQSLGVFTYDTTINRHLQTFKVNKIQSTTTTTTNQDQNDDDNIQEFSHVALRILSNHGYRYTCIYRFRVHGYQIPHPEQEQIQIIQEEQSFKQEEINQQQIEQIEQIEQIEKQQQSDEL

Molecular target: GFP-Sun-1 (D. discoideum) (UniProt Q558Z2)
Test: affinity purification with mass spectrometry; lysate of AX2 cells expressing GFP-Sun-1, GFP antibodies on protein A Sepharose beads; bands cut from SDS gel and identified by MS (text: LCMS; legend of S2 Table: MALDI-MS)

B1: DdNKAP (endogenous) (protein, UniProt Q55ED4 1-510)
chain: MSHRERDRDRDRDSDRDRDRNRYSRSRSRGSRSRSRSRSRSRDRNRNRDYNKDRSSNRDSYYNDRDYKKDRSSNRDRDYYDRDRNRDYKNSSSGSSSGGGGGGSGENYTVKSSSYRESNSNNSKVEIQKQENISKDYFIDNKGVNNSIERKDNIKNENNNNNSFDNRKAEFNNNSYGEKKEFDNNNNRNYHGGNSRYVNNNNNNNNNNYNNNNNKSNYNGTDFFEYRKKLREEATCFSVYERSPSPPKKGELEEIDDQFLSNKKKSKKSRRKSSSNSDSSSSDSDSDSSRSREKRKKSKSRKDKKKRKEKKKHQRKSSKRSSKYSDSDSDSDSSFSDSDYSDSDRSDSEGRSRKKRSKKRSKKRHDHHKESVHDASMWEEKVEQQTQTLSNRDIGPKPISEVQVGSYGGAMMPGEAEAIAQFVKENKRIPRRGEVGLTSEQIASFEETGYVMSGSRHRRMNAVRIRKESQVYSAEEQKALAMLNREEKAKRENRLLADFRDLINTKLQAD
binding: binds

No constants are given. Whether binding was seen depends on the method and setting. Binding seen in cells or lysates may run through a third protein. Here binding means that the protein was enriched with, or labelled near, the bait; the list need not be complete.
